# Results of single-concentration screens

Amino acid sequences for entries named in this document (tags omitted). Residues count along the entry.
UniProt I6X8D2, whole entry: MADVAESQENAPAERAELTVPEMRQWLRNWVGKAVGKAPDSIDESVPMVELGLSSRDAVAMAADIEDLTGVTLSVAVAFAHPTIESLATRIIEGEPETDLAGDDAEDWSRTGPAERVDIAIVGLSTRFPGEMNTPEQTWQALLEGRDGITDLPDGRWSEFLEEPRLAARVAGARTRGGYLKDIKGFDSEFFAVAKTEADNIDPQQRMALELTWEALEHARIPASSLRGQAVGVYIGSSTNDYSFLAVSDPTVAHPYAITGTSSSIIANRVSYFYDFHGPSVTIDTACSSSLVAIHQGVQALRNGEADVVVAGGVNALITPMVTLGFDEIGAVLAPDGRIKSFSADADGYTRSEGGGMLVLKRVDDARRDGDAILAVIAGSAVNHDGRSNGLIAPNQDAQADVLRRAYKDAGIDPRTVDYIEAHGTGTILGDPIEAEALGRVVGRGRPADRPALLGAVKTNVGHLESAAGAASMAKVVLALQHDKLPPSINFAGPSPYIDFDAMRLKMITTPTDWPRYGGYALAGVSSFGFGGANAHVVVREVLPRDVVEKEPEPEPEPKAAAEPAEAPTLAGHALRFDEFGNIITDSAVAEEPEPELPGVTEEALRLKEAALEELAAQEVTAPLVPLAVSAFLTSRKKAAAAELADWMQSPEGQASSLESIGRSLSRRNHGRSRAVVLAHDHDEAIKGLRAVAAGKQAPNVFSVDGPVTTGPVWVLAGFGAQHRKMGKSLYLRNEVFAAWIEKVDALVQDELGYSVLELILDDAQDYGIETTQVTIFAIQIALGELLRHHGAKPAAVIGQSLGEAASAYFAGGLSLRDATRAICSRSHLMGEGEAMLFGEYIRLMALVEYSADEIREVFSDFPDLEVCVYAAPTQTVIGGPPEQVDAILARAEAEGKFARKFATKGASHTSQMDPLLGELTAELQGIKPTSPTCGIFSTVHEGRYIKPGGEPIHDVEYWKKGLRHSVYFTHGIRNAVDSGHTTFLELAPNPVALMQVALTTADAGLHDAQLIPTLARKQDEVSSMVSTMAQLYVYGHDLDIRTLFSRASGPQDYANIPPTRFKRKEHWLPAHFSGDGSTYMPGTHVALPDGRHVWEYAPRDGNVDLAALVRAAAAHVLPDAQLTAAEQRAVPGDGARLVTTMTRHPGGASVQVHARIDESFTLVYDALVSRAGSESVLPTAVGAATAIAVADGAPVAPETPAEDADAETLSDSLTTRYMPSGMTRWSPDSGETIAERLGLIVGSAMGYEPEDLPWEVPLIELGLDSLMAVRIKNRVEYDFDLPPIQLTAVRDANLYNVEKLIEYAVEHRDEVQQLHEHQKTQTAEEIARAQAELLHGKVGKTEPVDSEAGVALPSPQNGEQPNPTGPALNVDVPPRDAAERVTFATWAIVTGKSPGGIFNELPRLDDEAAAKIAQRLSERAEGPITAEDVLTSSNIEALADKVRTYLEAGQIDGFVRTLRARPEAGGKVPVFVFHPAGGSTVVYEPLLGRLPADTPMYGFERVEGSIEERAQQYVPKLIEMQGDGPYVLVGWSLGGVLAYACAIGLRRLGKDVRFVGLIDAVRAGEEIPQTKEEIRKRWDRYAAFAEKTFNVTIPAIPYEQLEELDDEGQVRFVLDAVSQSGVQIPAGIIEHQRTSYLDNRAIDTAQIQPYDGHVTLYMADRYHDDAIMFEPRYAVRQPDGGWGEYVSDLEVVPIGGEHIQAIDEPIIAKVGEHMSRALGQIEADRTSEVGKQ
UniProt P9WNZ1, whole entry: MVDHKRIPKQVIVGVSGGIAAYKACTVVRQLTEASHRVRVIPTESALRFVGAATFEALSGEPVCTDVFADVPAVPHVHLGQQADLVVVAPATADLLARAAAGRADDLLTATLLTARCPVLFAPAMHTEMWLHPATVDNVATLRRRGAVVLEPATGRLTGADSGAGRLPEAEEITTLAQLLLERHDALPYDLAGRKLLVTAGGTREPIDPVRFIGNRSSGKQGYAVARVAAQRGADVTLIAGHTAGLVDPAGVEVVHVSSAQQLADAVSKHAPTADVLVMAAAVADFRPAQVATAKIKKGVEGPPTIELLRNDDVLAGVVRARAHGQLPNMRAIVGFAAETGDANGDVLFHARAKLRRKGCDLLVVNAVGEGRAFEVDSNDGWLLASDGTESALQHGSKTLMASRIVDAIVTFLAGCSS
UniProt Q8IDJ8, 1-583: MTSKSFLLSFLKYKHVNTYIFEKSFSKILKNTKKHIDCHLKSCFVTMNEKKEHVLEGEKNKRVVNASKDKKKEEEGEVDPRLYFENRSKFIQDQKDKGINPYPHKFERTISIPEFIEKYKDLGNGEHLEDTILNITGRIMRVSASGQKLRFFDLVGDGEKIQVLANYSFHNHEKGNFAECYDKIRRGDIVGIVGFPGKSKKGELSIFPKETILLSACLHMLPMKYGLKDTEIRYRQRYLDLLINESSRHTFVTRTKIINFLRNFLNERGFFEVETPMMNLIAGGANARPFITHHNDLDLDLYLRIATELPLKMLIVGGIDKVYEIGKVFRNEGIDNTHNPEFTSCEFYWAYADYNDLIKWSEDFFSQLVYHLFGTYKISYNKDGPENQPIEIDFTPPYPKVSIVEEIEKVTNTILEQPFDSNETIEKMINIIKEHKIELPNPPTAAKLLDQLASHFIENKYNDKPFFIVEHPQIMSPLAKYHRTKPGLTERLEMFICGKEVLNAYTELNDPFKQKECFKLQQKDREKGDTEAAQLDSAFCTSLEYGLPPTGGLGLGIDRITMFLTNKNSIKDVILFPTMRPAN
UniProt Q4DA54, 1-478: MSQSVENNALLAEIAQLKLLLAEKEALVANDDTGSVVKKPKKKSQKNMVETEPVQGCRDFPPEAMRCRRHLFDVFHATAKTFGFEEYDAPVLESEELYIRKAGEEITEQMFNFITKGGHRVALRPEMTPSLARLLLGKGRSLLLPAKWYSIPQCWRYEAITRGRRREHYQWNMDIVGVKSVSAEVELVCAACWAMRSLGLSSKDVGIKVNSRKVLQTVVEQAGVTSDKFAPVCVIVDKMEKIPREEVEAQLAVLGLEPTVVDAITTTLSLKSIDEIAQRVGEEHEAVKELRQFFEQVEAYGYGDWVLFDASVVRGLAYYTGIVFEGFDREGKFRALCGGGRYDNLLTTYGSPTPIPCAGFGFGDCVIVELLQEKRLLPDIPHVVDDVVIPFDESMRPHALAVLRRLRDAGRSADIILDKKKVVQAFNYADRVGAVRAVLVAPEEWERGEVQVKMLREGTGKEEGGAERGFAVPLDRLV

Measurements from “University of Dundee, Small-Polar-MMV Screening Library” (2021), ChEMBL document CHEMBL3988442.

A: 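Enzyme assay of the thioesterase domain of polyketide synthase 13; the read-out is not stated. Target: Polyketide synthase Pks13, Mycobacterium tuberculosis (UniProt I6X8D2). Compounds at 30 µM. Higher reads as stronger inhibition (inferred from which compounds were picked for retests). Of about 67,000 compounds tested this way, about 300 (0.46%) reached 50% or more in at least one test.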
B: 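Coenzyme A biosynthesis protein CoaBC, Mycobacterium tuberculosis (UniProt P9WNZ1). Enzyme assay of CoaBC with a phosphate dye (Biomol Green) read at 650 nm. Tested at 30 µM. Higher reads as stronger inhibition, judged from the few compounds that gave an IC50. Most strong results did not repeat in a second test. About 67,000 compounds were tested under these conditions; 0.06% (about 40) showed 50% or more at least once.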
C: 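Enzyme assay of the cytosolic lysyl-tRNA synthetase in 384-well plates, read by luminescence. Target: Lysine-tRNA ligase, Plasmodium falciparum 3D7 (UniProt Q8IDJ8). Tested at 30 µM. Direction is inferred from only a few compounds that gave an IC50; most scored high, so higher reads as stronger inhibition. Size under these conditions: about 69,000 compounds, about 49 of them at 50% or above in at least one test.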
D: 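Enzyme assay of histidyl-tRNA synthetase; the read-out is not stated. Target: Histidine-tRNA ligase, Trypanosoma cruzi CL Brener (UniProt Q4DA54). Tested at 30 µM. Direction is inferred from retests: higher values go with stronger inhibition. Size under these conditions: about 69,000 compounds, about 31 of them at 50% or above in at least one test.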

Results are given as percent effect.
How 0% and 100% were set is not recorded. Most values in the screen are low, and negative values occur.
Compounds were drawn at random from those tested, without regard to their results.
A dash means the value is not listed here; it may have been measured.

| structure | A | B | C | D |
|---|---|---|---|---|
| `CC(C)NC(=O)C[C@H]1[C@H]2CN(C(=O)Cc3ccccn3)C[C@@H]12` | 20.96 | 10.39 | 6.069 | 4.598 |
| `Fc1ccccc1C1(CNC2CCOC3(CCOCC3)C2)CCCC1` (centres undefined) | -13.82 | 4.698 | -1.212 | 5.155 |
| `CO[C@H]1CCN(S(=O)(=O)c2cccnc2)[C@@H]2CN(CC3CC3)C[C@H]12` | -4.779 | 1.5 | 3.247 | 10.78 |
| `Cc1cc(C)c(CNC(=O)N(C)CC2CCCCO2)c(=O)[nH]1` (centres undefined) | 7.815 | 1.33 | 0.3759 | 2.662 |
| `Cc1ccc2cccc(S(=O)(=O)N(C)CC3CCN(C)C3)c2n1` (centres undefined) | -5.106 | 3.133 | -2.997 | 9.901 |
| `CC(C)c1cc(C(=O)N2CCNCC2C(=O)NCc2ccncc2)on1` (centres undefined) | -36.55 | 11.11 | 3.886 | 1.622 |
| `CC(C)NC(=O)[C@@H]1CN(C(=O)C2CC2)C[C@]12Cc1ccccc1C(=O)N2` | 52.56 | -4.439 | -0.5944 | 8.333 |
| `CN(C)C[C@@H]1C[C@@H]2CN(c3ncc(F)cn3)CC[C@@H]2N1C` | -4.06 | -15.42 | 6.127 | 5.882 |
| `NC(=O)NCC1CCCCN1Cc1nc(-c2ccco2)no1` (centres undefined) | -8.558 | 1.149 | 0.3444 | 3.468 |
| `Cc1cc(C)n(CC2CN(CCOc3ccccc3C#N)CCO2)n1` (centres undefined) | -4.172 | 0.9126 | -0.03969 | 6.936 |
| `Cc1n[nH]c(C2CN(C(=O)c3ccc(Cl)o3)CCO2)n1` (centres undefined) | -8.656 | 0.7317 | 1.818 | -1.961 |
| `CCN1CCNC(=O)C12CCN(S(=O)(=O)c1ccccc1)CC2` | -32.91 | 2.799 | 2.34 | 8.738 |
| `NC(=O)C1CCN(c2ccc3cc(Br)ccc3n2)C1` (centres undefined) | 8.435 | -0.3841 | -2.566 | 3.067 |
| `COCCN(C)C[C@@H]1CN(C(=O)c2cccc(C(F)(F)F)c2)C[C@@H]1CO` | -9.803 | 6.61 | 1.411 | 2.5 |
| `CCNC(=O)[C@@H]1C[C@@H](NC(=O)Cc2ccccn2)CN1CCCSC` | -2.154 | -20.86 | -7.672 | 4.132 |
| `CN(C)C(C(=O)N1CCSCC1)c1ccccc1F` (centres undefined) | -20.23 | 2.959 | 3.393 | 4.233 |
| `CN1CCC(N2CCC[C@H]2c2nc(-c3cncnc3N)no2)CC1` | 7.721 | 8.609 | -2.724 | 7.609 |
| `O=C1N(c2cccc(Cl)c2)Cc2nc(=O)n(Cc3cccc(F)c3)n21` | -15.94 | 2.288 | 8.781 | 1.639 |
| `COc1ccc(NC(=O)C2CC(=O)N(C)C2)cn1` (centres undefined) | 10.71 | 5.044 | 0.4835 | 8.14 |
| `CCN(CC)C1(Cc2cc(-c3cccc(O)c3)on2)COC1` | -17.74 | 18.27 | 6.514 | -0.4975 |
| `O=C(Cc1ccc(F)cc1)NCC(O)(c1cccs1)C1CC1` (centres undefined) | -16.85 | 1.903 | -3.95 | -4.124 |
| `Cc1ccsc1C(=O)NCc1ccnc(C2CCCOC2)n1` (centres undefined) | -3.306 | 4.116 | -1.18 | 1.695 |
| `CC(C(N)=O)N1CCN(c2ncc(Br)cn2)CC1` (centres undefined) | -9.777 | 3.185 | 2.728 | -0.5525 |
| `O=C(Cc1cccnc1)N1CCC2(CC1)CCN(C1CCOCC1)CC2` | -35.2 | 2.447 | 8.263 | 6.931 |
| `CC(C)c1noc(CN(Cc2ccc(F)cc2)C2CC2)n1` | 0.3301 | 3.553 | 1.508 | 2.242 |
| `COCCCNc1c(-c2ccccc2)c(=O)c1=O` | 4.523 | 5.138 | 2.79 | 13 |
| `Cc1ccc(C(=O)NCCCNc2ccc(C(F)(F)F)cn2)cc1` | -10.08 | 4.604 | 0.3736 | 5.882 |
| `Cc1[nH]c2c(C)ccc(C)c2c1CC(=O)NCCCNc1cccnc1` | -30.43 | - | -1.242 | 10.53 |
| `COCCN1CCC(CNC(=O)C2(c3cccc(C)c3)CC2)CC1` | -8.688 | 3.133 | -0.7259 | 4.135 |
| `O=C(COCc1ccccc1Cl)N1CCCC(n2ccnc2)C1` (centres undefined) | -31.76 | -2.949 | -1.139 | 1.994 |
| `O=C(NCC1(O)CCOC1)c1ccccc1Cl` (centres undefined) | -8.917 | 4.4 | 3.729 | 4.598 |
| `COC(=O)c1ccoc1COC(=O)CCc1ccc(OC)c(OC)c1` | -16.61 | 3.104 | 1.544 | -2.174 |
| `Cc1cccc(C(=O)N2CCC3(CC(C(=O)N(C)C(C)C)=NO3)C2)c1` (centres undefined) | -10.71 | 5.654 | 4.761 | 10.05 |
| `COCC(=O)N1CCC2(CC1)COC(COCc1ccccn1)C2` (centres undefined) | - | -0.4673 | 0.9593 | 9.783 |
| `CC(C)OCc1ncn2c1CN(Cc1cccs1)CCC2` | -19.54 | 11.83 | -1.665 | 2.762 |
| `c1cnc(N2CCOCC3(C2)CN(c2nccs2)CCO3)nc1` (centres undefined) | -3.776 | 4.68 | 5.421 | 14.43 |
| `CCCS(=O)(=O)N(C)C(=O)CCc1ccsc1` | -0.8186 | 0.2445 | 0.4237 | 1.031 |
| `CCS(=O)(=O)CC(=O)NC(c1ccc(F)cc1)C1CCCC1` (centres undefined) | -30.14 | 0.135 | 4.237 | 4.348 |
| `CCC(NC(=O)Cn1ccc(=O)n(C)c1=O)c1ccccc1OC` (centres undefined) | -38.16 | 2.552 | -0.03791 | 3.922 |
| `CN(C)c1nccnc1C1CCN(c2cnccn2)CC1` | 20.64 | 0 | -0.5268 | 0.3831 |
| `CC(NC(=O)NC1CCN(Cc2ccncc2)CC1)c1ccccc1F` (centres undefined) | -19.63 | 6.511 | 3.775 | 14.29 |

Once more, the final 5:

structure,A,B,C,D
CCCS(=O)(=O)N(C)C(=O)CCc1ccsc1,-0.8186,0.2445,0.4237,1.031
CCS(=O)(=O)CC(=O)NC(c1ccc(F)cc1)C1CCCC1 (centres undefined),-30.14,0.135,4.237,4.348
CCC(NC(=O)Cn1ccc(=O)n(C)c1=O)c1ccccc1OC (centres undefined),-38.16,2.552,-0.03791,3.922
CN(C)c1nccnc1C1CCN(c2cnccn2)CC1,20.64,0,-0.5268,0.3831
CC(NC(=O)NC1CCN(Cc2ccncc2)CC1)c1ccccc1F (centres undefined),-19.63,6.511,3.775,14.29